Data source: PubChem BioAssay AID1224830 (NIAID, 2016)
The whole screen tested about 18,000 reagents; below is a random part of them. About 2,900 of all reagents (16%) were called active. 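Calls are made per well; low scores hint the gene aids the LPS response, high scores that it dampens it.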 Repeated entries: four replicate wells of each siRNA pool.

Assay: 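Host factors that control LPS-induced TNF expression in human macrophages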 (primary screen)
System: human THP-1 monocytic leukaemia cells, TNF dual-luciferase reporter clone, PMA-differentiated to macrophage-like cells
Reagents: siRNA pool against human genes, 50 nM
Time to read-out: LPS for 4 h, given about 3 days after siRNA transfection
Challenge: bacterial LPS (TLR4 ligand), 10 ng/ml
Read-out: 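TNF firefly reporter luminescence divided by renilla, normalised to the plate median, then turned into a robust z-score for each replicate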
Reading the numbers: TNF reporter robust z-score: higher = stronger TNF reporter response to LPS
Active means: 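Each well counts as active if its z-score is over 2.8 or under -1.5; controls are left without a call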

The first 2 entries as a preview:
no.	Gene	TNF reporter robust z-score	activity call
1	CACNG6 (calcium voltage-gated channel auxiliary subunit gamma 6)	0.67	inactive
2	CACNG6 (calcium voltage-gated channel auxiliary subunit gamma 6)	1.62	inactive

The listing, from the start:
no.	Gene	TNF reporter robust z-score	activity call
1	CACNG6 (calcium voltage-gated channel auxiliary subunit gamma 6)	0.67	inactive
2	CACNG6 (calcium voltage-gated channel auxiliary subunit gamma 6)	1.62	inactive
3	CACNG6 (calcium voltage-gated channel auxiliary subunit gamma 6)	0.71	inactive
4	CACNG6 (calcium voltage-gated channel auxiliary subunit gamma 6)	0.77	inactive
5	FNDC4 (fibronectin type III domain containing 4)	-0.33	inactive
6	FNDC4 (fibronectin type III domain containing 4)	0.37	inactive
7	FNDC4 (fibronectin type III domain containing 4)	0.51	inactive
8	FNDC4 (fibronectin type III domain containing 4)	-0.67	inactive
9	ASPA (aspartoacylase)	0.71	inactive
10	ASPA (aspartoacylase)	2.08	inactive
11	ASPA (aspartoacylase)	1	inactive
12	ASPA (aspartoacylase)	-0.52	inactive
13	CLN5 (CLN5 lysosomal BMP synthase)	0.07	inactive
14	CLN5 (CLN5 lysosomal BMP synthase)	-0.2	inactive
15	CLN5 (CLN5 lysosomal BMP synthase)	-0.45	inactive
16	CLN5 (CLN5 lysosomal BMP synthase)	-0.07	inactive
17	PCYT1A (phosphate cytidylyltransferase 1A, choline)	-0.55	inactive
18	PCYT1A (phosphate cytidylyltransferase 1A, choline)	1.17	inactive
19	PCYT1A (phosphate cytidylyltransferase 1A, choline)	0.99	inactive
20	PCYT1A (phosphate cytidylyltransferase 1A, choline)	0.32	inactive
21	GAB4 (GRB2 associated binding protein family member 4)	-0.69	inactive
22	GAB4 (GRB2 associated binding protein family member 4)	-0.92	inactive
23	GAB4 (GRB2 associated binding protein family member 4)	-0.54	inactive
24	GAB4 (GRB2 associated binding protein family member 4)	-0.65	inactive
25	SH3RF2 (SH3 domain containing ring finger 2)	-0.87	inactive
26	SH3RF2 (SH3 domain containing ring finger 2)	1.57	inactive
27	SH3RF2 (SH3 domain containing ring finger 2)	-0.22	inactive
28	SH3RF2 (SH3 domain containing ring finger 2)	1.55	inactive
29	GGCX (gamma-glutamyl carboxylase)	2.03	inactive
30	GGCX (gamma-glutamyl carboxylase)	2.93	active
31	GGCX (gamma-glutamyl carboxylase)	0.29	inactive
32	GGCX (gamma-glutamyl carboxylase)	2.13	inactive
33	IRX5 (iroquois homeobox 5)	0.02	inactive
34	IRX5 (iroquois homeobox 5)	-0.33	inactive
35	IRX5 (iroquois homeobox 5)	-0.81	inactive
36	IRX5 (iroquois homeobox 5)	-0.76	inactive
37	MAGEA6 (MAGE family member A6)	0.32	inactive
38	MAGEA6 (MAGE family member A6)	0.21	inactive
39	MAGEA6 (MAGE family member A6)	0.34	inactive
40	MAGEA6 (MAGE family member A6)	1.65	inactive
41	ZNF121 (zinc finger protein 121)	-0.72	inactive
42	ZNF121 (zinc finger protein 121)	-0.08	inactive
43	ZNF121 (zinc finger protein 121)	-0.95	inactive
44	ZNF121 (zinc finger protein 121)	-0.53	inactive
45	TWSG1 (twisted gastrulation BMP signaling modulator 1)	-0.33	inactive
46	TWSG1 (twisted gastrulation BMP signaling modulator 1)	-0.06	inactive
47	TWSG1 (twisted gastrulation BMP signaling modulator 1)	0.05	inactive
48	TWSG1 (twisted gastrulation BMP signaling modulator 1)	-0.07	inactive
